# Data reported in the supplement of paper PMC10338343.
# ± gives the standard deviation. The entries are a selection whose mix differs from that of the whole data set. Many entries were measured with a wide error. Some of the results follow.
# Tests used:
# [1] = system: MILI (PIWIL2) piRISC loaded with L1MC piRNA (26 nt); assay: pre-steady-state target cleavage rate (min^-1); higher = faster piRNA-guided slicing of the target; details: guide: L1MC piRNA 5'p-UAACUAAAUACUAUGCAAGCUGUAGG
# Method in brief: (§1)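 Active affinity-purified piRISC (1 nM) loaded with one synthetic guide was mixed with a transcribed, DNA-blocked target RNA library (0.1 nM), with or without 500 nM GTSF1 partner protein, in HEPES–potassium acetate buffer at 33 °C for 0–8 or 0–960 min. Uncleaved targets were sequenced, normalised to depth and to weakly complementary targets, and pooled across three trials, with k3 capped at 0.0001 min^-1. The pre-steady-state cleavage rate was determined with a burst-and-steady-state fit.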
# [2] = system: MIWI (PIWIL1) piRISC loaded with L1MC piRNA (30 nt); assay: as above; details: guide: L1MC piRNA 5'p-UAACUAAAUACUAUGCAAGCUGUAGGUCCU
# Method in brief: as §1
# [3] = system: EfPiwi piRISC loaded with L1MC piRNA (26 nt); assay: pre-steady-state target cleavage rate (min^-1); guide: L1MC piRNA 5'p-UAACUAAAUACUAUGCAAGCUGUAGG; MIWI and MILI are mouse PIWI proteins and EfPiwi is from a freshwater sponge; tags in brackets are library labels; higher = faster piRNA-guided slicing of the target
# Method in brief: as §1
# [4] = auxiliary factor: 500 nM mouse GTSF1
# [5] = auxiliary factor: none (no GTSF1)
# [6] = auxiliary factor: 500 nM Ephydatia muelleri Gtsf1
# [7] = auxiliary factor: none (no Gtsf1)
Sequence,"pre-steady-state target cleavage rate [1, 4]","pre-steady-state target cleavage rate [1, 5]","pre-steady-state target cleavage rate [2, 4]","pre-steady-state target cleavage rate [2, 5]","pre-steady-state target cleavage rate [3, 6]","pre-steady-state target cleavage rate [3, 7]"
UCCUGGAUGUGCUUGGUAAGUAUUUAGUAA,0.00211 ± 0.0055,0.001 ± 0.0066,0.00084 ± 0.013,0.000284 ± 0.01,0.000469 ± 0.0075,
UCCUGGAUGUCGAACCGAUAGUAUUUAGUUA,0.00115 ± 0.0075,0.000251 ± 0.0088,0.000726 ± 0.0089,0.0005 ± 0.0081,0.000248 ± 0.012,
UCCUCGUACAGCUUGCAUAGUAUUUAGAAA,0.131 ± 0.024,0.00192 ± 0.0033,0.363 ± 0.029,0.00538 ± 0.0021,0.00711 ± 0.0033,
UCCUGGAUGUCGAAGCAUAGUAUUUAUGUUA,0.022 ± 0.0065,0.00179 ± 0.0037,0.00149 ± 0.006,0.000515 ± 0.014,0.000208 ± 0.017,
UCCUGGAUGUGCUUGCAUAGUAUAAUGAAA,0.00179 ± 0.0054,0.000385 ± 0.016,0.00121 ± 0.008,0.00132 ± 0.0056,0.000631 ± 0.0063,
UCCUGGAUCAGCUUGCAUACAUUUUAGUAA,0.00123 ± 0.0065,0.000808 ± 0.0085,0.00132 ± 0.0091,0.000992 ± 0.0047,0.000294 ± 0.011,
UCCUGGAUGUGCUUGCAUAGAUUUUAGAAA,0.000966 ± 0.011,0.00117 ± 0.0042,0.000908 ± 0.012,0.00132 ± 0.0049,0.000738 ± 0.0042,
UCCUGGAUGUCGAAGCAUAGUUUUAGUUA,0.000213 ± 0.035,0.000403 ± 0.0088,0.00024 ± 0.043,0.00108 ± 0.0043,0.00044 ± 0.0092,
UCCUGGAUGUCGUUGCAUAGAAUUUAGAUA,0.000306 ± 0.025,0.00022 ± 0.024,0.000105 ± 0.076,0.000284 ± 0.026,0.000734 ± 0.0093,
UCCUGGAUGUCCUUGCCAUAGUAUUUAGUUA,0.00783 ± 0.0048,0.00102 ± 0.0072,0.00165 ± 0.0065,0.000553 ± 0.014,0.00115 ± 0.0074,
UCCUGCAACAGCUUGCAUAGUAUUUAGUUA,0.398 ± 0.028,0.0107 ± 0.0034,1.57 ± 0.12,0.0696 ± 0.017,0.0741 ± 0.018,
UCCUGGAUCAGCUUGCAUACGUAUUUAGUUA,0.00192 ± 0.0063,0.000907 ± 0.0077,0.00166 ± 0.0069,0.00028 ± 0.016,0.00296 ± 0.0039,
UCCUGGAUGUGGUUGCAUAGAAUUUAGUUA,0.0151 ± 0.0063,0.00318 ± 0.0028,0.00363 ± 0.0068,0.00186 ± 0.0046,0.000743 ± 0.007,
UCCUGGAUGUCGUUGCUUACUAUUUAGUUA,0.00175 ± 0.0079,0.000864 ± 0.0077,0.000453 ± 0.026,0.000552 ± 0.015,0.000809 ± 0.0088,
UCCUGGAUGUCGAACGUUUGUUUUUAGUUA,0.000212 ± 0.038,0.000111 ± 0.018,0.000188 ± 0.044,0.000334 ± 0.015,,0.000122 ± 0.058
UCCUGGAUGAGCUUGCAUAGUUUUAGUUA,0.00248 ± 0.0048,0.0011 ± 0.0055,0.00219 ± 0.0064,0.00146 ± 0.0049,0.000844 ± 0.0047,
UCCUGGAUGUCGUUGCAUAGCUAUUUAGUUA,0.00105 ± 0.0094,0.000215 ± 0.026,0.00163 ± 0.006,0.000767 ± 0.013,0.000324 ± 0.0095,
UCCUGGAUCAGCUUGGUAAGUAUUUAGUAA,0.0371 ± 0.011,0.00114 ± 0.0053,0.00119 ± 0.0074,0.000643 ± 0.011,0.00112 ± 0.0064,
UCCUGGAACAGCUUGCAUAAUAUUUAGUUA,0.298 ± 0.028,0.00254 ± 0.0032,0.559 ± 0.045,0.0418 ± 0.0079,,0.00189 ± 0.0072
UCCUGGAUGUCGUUGCUAAGUAUUUAGUUA,0.00347 ± 0.004,0.0021 ± 0.003,0.000433 ± 0.024,0.000252 ± 0.0093,0.00042 ± 0.0088,

# Single records (already shown).
# UCCUCGUACAGCUUGCAUAGUAUUUAGAAA is entered as pre-steady-state target cleavage rate [1, 4] = 0.131 ± 0.024; pre-steady-state target cleavage rate [1, 5] = 0.00192 ± 0.0033; pre-steady-state target cleavage rate [2, 4] = 0.363 ± 0.029; pre-steady-state target cleavage rate [2, 5] = 0.00538 ± 0.0021; pre-steady-state target cleavage rate [3, 6] = 0.00711 ± 0.0033
# UCCUGGAUGUCGAAGCAUAGUUUUAGUUA is entered as pre-steady-state target cleavage rate [1, 4] = 0.000213 ± 0.035; pre-steady-state target cleavage rate [1, 5] = 0.000403 ± 0.0088; pre-steady-state target cleavage rate [2, 4] = 0.00024 ± 0.043; pre-steady-state target cleavage rate [2, 5] = 0.00108 ± 0.0043; pre-steady-state target cleavage rate [3, 6] = 0.00044 ± 0.0092

# Following part:

Sequence,"pre-steady-state target cleavage rate [1, 4]","pre-steady-state target cleavage rate [1, 5]","pre-steady-state target cleavage rate [2, 4]","pre-steady-state target cleavage rate [2, 5]","pre-steady-state target cleavage rate [3, 6]","pre-steady-state target cleavage rate [3, 7]"
UCCUGGAUGUCGAACCACAGUAUUUAGUUA,0.000781 ± 0.0087,0.000138 ± 0.022,0.000598 ± 0.0075,0.000546 ± 0.0075,0.000115 ± 0.024,
UCCUGGAUGUCGAAGCUAUAGUAUUUAGUUA,0.000595 ± 0.01,0.000391 ± 0.012,0.000123 ± 0.055,0.000663 ± 0.0062,0.000282 ± 0.0088,
UCCUGCUUCAGCUAGCAUAGUAUUUAGUUA,0.322 ± 0.02,0.00715 ± 0.0018,1.32 ± 0.056,0.0109 ± 0.0042,0.0566 ± 0.015,
UCCUCCUCACAGCUUGCAUAGUAUUUAGUUA,0.369 ± 0.021,0.0102 ± 0.0027,1.49 ± 0.064,0.0662 ± 0.014,0.191 ± 0.046,
UCCUGGAUGAGCUUGCAUUCAAUUUAGUUA,0.00387 ± 0.0044,0.00165 ± 0.0059,0.00274 ± 0.0046,0.000868 ± 0.0079,0.000324 ± 0.01,
UCCUGGUACAGCUUGCAUGGUAUUUAGUUA,0.298 ± 0.021,0.0136 ± 0.0044,0.891 ± 0.058,0.0741 ± 0.018,0.00828 ± 0.0033,
UCCUGGAUGUGCUUGCAAUGUAUUUAGAAA,0.00228 ± 0.0049,0.00119 ± 0.0058,0.00144 ± 0.0066,0.00132 ± 0.0061,0.000387 ± 0.011,
UCCUGGAUGAGCUUGCUAUGUAUUUAGUAA,0.00283 ± 0.0044,0.00172 ± 0.0037,0.00255 ± 0.0049,0.000947 ± 0.0056,0.000498 ± 0.008,
UCCUGGAAACAGCUUGCAUAGUAUUUAGUUA,0.347 ± 0.019,0.0105 ± 0.0038,1.34 ± 0.051,0.0675 ± 0.012,0.164 ± 0.034,
UCCUGGAUGUGCUUGCAAUCUAUUUAGUAA,0.000635 ± 0.011,0.000421 ± 0.013,0.000483 ± 0.017,0.000178 ± 0.02,0.000233 ± 0.016,
UCCUGGAUGUCGAUGCAUAGUUUUAGUUA,0.000679 ± 0.015,0.000438 ± 0.012,0.000537 ± 0.02,0.00112 ± 0.0058,0.000275 ± 0.013,
UCCUGGAUGAGCUUGCAUACAAUUUAGUAA,0.000854 ± 0.0094,0.000185 ± 0.021,0.00119 ± 0.0083,0.000174 ± 0.014,0.000486 ± 0.0067,
UCCUGGAUGUCGUUCCAUAGUAUUAAGUUA,0.00181 ± 0.0072,0.00023 ± 0.021,0.0049 ± 0.0055,0.000163 ± 0.018,0.000186 ± 0.02,
UCCUGGAUGAGCUUGCAUAGAUUUUAGUAA,0.0025 ± 0.0045,0.00178 ± 0.004,0.00253 ± 0.0042,0.00173 ± 0.0041,0.000662 ± 0.0065,
UCCUGGAUGUCGAUGCUUAGUUUUUAGUUA,0.00221 ± 0.0051,0.00151 ± 0.0048,0.000307 ± 0.024,0.000544 ± 0.013,0.000208 ± 0.019,
UCCUGGUAGUGCUUGCAUAGUAUUUACAAA,0.00115 ± 0.0093,0.000735 ± 0.008,0.00283 ± 0.0053,0.00157 ± 0.0051,0.00135 ± 0.0029,
UCCUGGAUGUCGUUGCAUAGUAUAUUGUUA,0.0458 ± 0.017,0.00227 ± 0.0041,0.000315 ± 0.031,0.00107 ± 0.0064,0.000227 ± 0.022,
UCCUGGAUGUCGAACCAUAUUAUUUAGUUA,0.000481 ± 0.015,0.000258 ± 0.015,0.000559 ± 0.014,0.000437 ± 0.011,0.000466 ± 0.01,
UCCUCACUACAGCUUGCAUAGUAUUUAGUUA,0.259 ± 0.022,0.00971 ± 0.0027,0.676 ± 0.03,0.0551 ± 0.0082,0.0191 ± 0.0067,
UCCUGGAUGUCGAAGCUUAGUUUUUAGUUA,0.000508 ± 0.016,0.000367 ± 0.013,0.000532 ± 0.0096,0.00036 ± 0.012,0.000135 ± 0.033,
